PubChem BioAssay AID1224830 | NIAID – 2016
In all, the deposit lists about 18,000 reagents; below is a random part of them. Over the whole deposit, about 2,900 (16%) were called active. 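Calls are made per well; low scores hint the gene aids the LPS response, high scores that it dampens it.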 Repeated entries: four replicate wells of each siRNA pool.

Test: 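Genes whose knock-down alters the TNF-alpha reporter response to LPS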 (primary screen)
System: human THP-1 monocytic leukaemia cells, TNF dual-luciferase reporter clone, PMA-differentiated to macrophage-like cells
Reagent: siRNA pool against human genes, 50 nM
Duration: LPS for 4 h, given about 3 days after siRNA transfection
Treatment: bacterial LPS (TLR4 ligand), 10 ng/ml
Measured: 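Ratio of firefly to renilla light, scaled to the plate median and expressed as a robust z-score per replicate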
Reading the numbers: TNF reporter robust z-score: higher = stronger TNF reporter response to LPS
Rule for the call: 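Each well counts as active if its z-score is over 2.8 or under -1.5; controls are left without a call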

How did the screen score PNMA3?
TNF reporter robust z-score: 0.49; Call: inactive

For PNMA3, how do the results read?
TNF reporter robust z-score: 0.69; Call: inactive

For PNMA3, how do the results read?
TNF reporter robust z-score: 0.36; Call: inactive

What is on record for PNMA3?
TNF reporter robust z-score: -0.89; Call: inactive

With PTPRK, what was measured?
TNF reporter robust z-score: 2.44; Call: inactive

With PTPRK, what does the deposit list?
TNF reporter robust z-score: 1.93; Call: inactive

For PTPRK, how do the results read?
TNF reporter robust z-score: 0.85; Call: inactive

For PTPRK, what does the deposit list?
TNF reporter robust z-score: 0.48; Call: inactive

Which result is listed for MDP1?
TNF reporter robust z-score: 0.08; Call: inactive

With MDP1, what does the deposit list?
TNF reporter robust z-score: -0.09; Call: inactive

What is on record for MDP1?
TNF reporter robust z-score: 0.8; Call: inactive

For MDP1, what does the deposit list?
TNF reporter robust z-score: 0; Call: inactive

Which result is listed for LZTS3?
TNF reporter robust z-score: -1.39; Call: inactive

For LZTS3, how do the results read?
TNF reporter robust z-score: -0.59; Call: inactive

What did the screen give for LZTS3?
TNF reporter robust z-score: -0.77; Call: inactive

What is on record for LZTS3?
TNF reporter robust z-score: -0.42; Call: inactive

With IPO9, how do the results read?
TNF reporter robust z-score: -0.13; Call: inactive

With IPO9, how do the results read?
TNF reporter robust z-score: -0.69; Call: inactive

What did the screen give for IPO9?
TNF reporter robust z-score: 0.27; Call: inactive

What did the screen give for IPO9?
TNF reporter robust z-score: -0.18; Call: inactive

With LY75, what was measured?
TNF reporter robust z-score: 0.08; Call: inactive

What did the screen give for LY75?
TNF reporter robust z-score: -0.16; Call: inactive

How did the screen score LY75?
TNF reporter robust z-score: 0.18; Call: inactive

How did the screen score LY75?
TNF reporter robust z-score: 1.32; Call: inactive

What is on record for BRMS1?
TNF reporter robust z-score: 0.44; Call: inactive

How did the screen score BRMS1?
TNF reporter robust z-score: -0.57; Call: inactive

Which result is listed for BRMS1?
TNF reporter robust z-score: -0.53; Call: inactive

What did the screen give for BRMS1?
TNF reporter robust z-score: -0.05; Call: inactive

How did the screen score DZIP1L?
TNF reporter robust z-score: 1.26; Call: inactive

Which result is listed for DZIP1L?
TNF reporter robust z-score: 1.58; Call: inactive

With DZIP1L, what does the deposit list?
TNF reporter robust z-score: 0.8; Call: inactive

For DZIP1L, what was measured?
TNF reporter robust z-score: 1.4; Call: inactive

With FLYWCH1, how do the results read?
TNF reporter robust z-score: -0.01; Call: inactive

For FLYWCH1, how do the results read?
TNF reporter robust z-score: 1.77; Call: inactive

With FLYWCH1, what was measured?
TNF reporter robust z-score: 0.78; Call: inactive

Which result is listed for FLYWCH1?
TNF reporter robust z-score: 1.72; Call: inactive

How did the screen score SLC6A14?
TNF reporter robust z-score: -1.66; Call: active

For SLC6A14, what was measured?
TNF reporter robust z-score: -1.76; Call: active

For SLC6A14, what was measured?
TNF reporter robust z-score: -1.52; Call: active

For SLC6A14, what does the deposit list?
TNF reporter robust z-score: -1.29; Call: inactive

What did the screen give for LTBP4?
TNF reporter robust z-score: -0.77; Call: inactive

What did the screen give for LTBP4?
TNF reporter robust z-score: -0.28; Call: inactive

How did the screen score LTBP4?
TNF reporter robust z-score: -0.2; Call: inactive

For LTBP4, what does the deposit list?
TNF reporter robust z-score: 0.29; Call: inactive

What did the screen give for PRKCG?
TNF reporter robust z-score: -0.66; Call: inactive

How did the screen score PRKCG?
TNF reporter robust z-score: 0.76; Call: inactive

What is on record for PRKCG?
TNF reporter robust z-score: -0.56; Call: inactive

For PRKCG, what does the deposit list?
TNF reporter robust z-score: -0.54; Call: inactive

6 of these entries in another layout.
{"target": "IPO9", "TNF reporter robust z-score": -0.18, "Call": "inactive"}
{"target": "LY75", "TNF reporter robust z-score": 0.08, "Call": "inactive"}
{"target": "LY75", "TNF reporter robust z-score": -0.16, "Call": "inactive"}
{"target": "LY75", "TNF reporter robust z-score": 0.18, "Call": "inactive"}
{"target": "LY75", "TNF reporter robust z-score": 1.32, "Call": "inactive"}
{"target": "BRMS1", "TNF reporter robust z-score": 0.44, "Call": "inactive"}
